Laboratory results reported in paper PMC5706870.
These are yes or no findings as the source states them, for the method shown. For part of these data: Binding seen in cells or lysates may run through a third protein. Some results given as binding are weak or reduced against the parent protein; the word gives no strength. For part of these data: Where a sequence is shown, tags or fusion partners need not be part of it.

Amino acid sequences for entries named in this document (tags omitted).
UniProt Q9UQL6: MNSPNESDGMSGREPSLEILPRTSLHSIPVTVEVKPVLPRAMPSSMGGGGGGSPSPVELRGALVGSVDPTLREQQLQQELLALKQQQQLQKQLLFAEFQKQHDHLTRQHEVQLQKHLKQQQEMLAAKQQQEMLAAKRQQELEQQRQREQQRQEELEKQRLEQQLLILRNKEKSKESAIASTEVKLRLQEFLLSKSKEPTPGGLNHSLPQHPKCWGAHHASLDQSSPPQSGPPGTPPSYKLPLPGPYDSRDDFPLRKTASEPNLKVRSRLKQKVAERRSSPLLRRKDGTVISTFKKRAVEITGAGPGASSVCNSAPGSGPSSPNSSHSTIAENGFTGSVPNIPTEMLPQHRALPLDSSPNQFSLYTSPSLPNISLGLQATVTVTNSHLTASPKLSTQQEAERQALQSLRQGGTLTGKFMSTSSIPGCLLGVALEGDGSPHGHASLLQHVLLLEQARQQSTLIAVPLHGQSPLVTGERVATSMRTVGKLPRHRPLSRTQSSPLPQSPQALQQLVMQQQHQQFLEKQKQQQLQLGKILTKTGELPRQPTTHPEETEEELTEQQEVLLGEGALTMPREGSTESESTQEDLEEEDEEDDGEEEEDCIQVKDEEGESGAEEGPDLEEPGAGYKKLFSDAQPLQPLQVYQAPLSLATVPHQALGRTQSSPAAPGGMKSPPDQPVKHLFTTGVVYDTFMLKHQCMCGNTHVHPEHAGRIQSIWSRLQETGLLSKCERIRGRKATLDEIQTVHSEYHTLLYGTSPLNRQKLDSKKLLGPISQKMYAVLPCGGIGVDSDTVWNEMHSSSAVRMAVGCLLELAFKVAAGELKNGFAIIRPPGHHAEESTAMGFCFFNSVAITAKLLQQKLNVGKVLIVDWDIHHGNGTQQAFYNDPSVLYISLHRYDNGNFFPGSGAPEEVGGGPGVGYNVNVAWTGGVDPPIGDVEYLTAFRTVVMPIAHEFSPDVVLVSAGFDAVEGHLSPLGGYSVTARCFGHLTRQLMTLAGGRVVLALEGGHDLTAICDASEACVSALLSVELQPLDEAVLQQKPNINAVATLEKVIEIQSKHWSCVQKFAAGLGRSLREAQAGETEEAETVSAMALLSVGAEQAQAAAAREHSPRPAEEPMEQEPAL
UniProt Q04206: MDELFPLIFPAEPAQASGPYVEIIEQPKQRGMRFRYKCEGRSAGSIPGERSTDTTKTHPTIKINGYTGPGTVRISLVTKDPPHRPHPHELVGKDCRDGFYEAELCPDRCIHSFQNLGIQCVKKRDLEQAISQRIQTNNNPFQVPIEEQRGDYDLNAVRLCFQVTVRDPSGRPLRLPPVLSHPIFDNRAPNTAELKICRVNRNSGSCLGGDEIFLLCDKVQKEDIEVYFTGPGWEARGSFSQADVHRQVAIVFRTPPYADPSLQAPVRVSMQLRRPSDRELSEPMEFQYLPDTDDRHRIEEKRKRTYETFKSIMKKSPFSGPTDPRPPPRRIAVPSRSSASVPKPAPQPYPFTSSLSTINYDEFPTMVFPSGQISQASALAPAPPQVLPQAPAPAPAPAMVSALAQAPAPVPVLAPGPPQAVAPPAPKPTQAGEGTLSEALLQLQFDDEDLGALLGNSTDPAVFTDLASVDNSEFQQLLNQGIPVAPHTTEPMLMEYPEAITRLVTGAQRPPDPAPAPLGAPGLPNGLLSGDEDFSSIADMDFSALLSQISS
UniProt Q04207: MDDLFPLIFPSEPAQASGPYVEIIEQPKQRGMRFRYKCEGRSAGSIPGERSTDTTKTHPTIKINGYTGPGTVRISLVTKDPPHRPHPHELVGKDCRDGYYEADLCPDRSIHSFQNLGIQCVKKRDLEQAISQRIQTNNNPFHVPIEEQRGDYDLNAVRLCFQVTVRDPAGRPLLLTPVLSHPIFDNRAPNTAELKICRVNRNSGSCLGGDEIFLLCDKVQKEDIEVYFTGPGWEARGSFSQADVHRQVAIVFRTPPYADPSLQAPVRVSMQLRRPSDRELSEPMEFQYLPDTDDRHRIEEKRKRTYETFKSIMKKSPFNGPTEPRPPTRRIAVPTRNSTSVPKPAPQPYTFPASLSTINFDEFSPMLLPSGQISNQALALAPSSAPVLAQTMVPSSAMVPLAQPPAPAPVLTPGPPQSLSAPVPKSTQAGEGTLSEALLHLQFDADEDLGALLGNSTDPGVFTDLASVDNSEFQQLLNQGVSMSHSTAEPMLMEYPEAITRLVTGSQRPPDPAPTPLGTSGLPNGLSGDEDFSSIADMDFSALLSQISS

Columns and labels:
[1] = target: FLAG-tagged MKL1 (megakaryocytic leukemia 1) (UniProt Q969V6); assay: co-IP; FLAG-MKL1 and HA-HDAC5 co-transfected into HEK293 cells; whole cell lysate in RIPA buffer (50 mM Tris pH7.4, 150 mM NaCl, 1% Triton X-100); precipitated with anti-FLAG, and reciprocally with anti-HA; Western blot
[2] = target: FLAG-tagged MKL1 (megakaryocytic leukemia 1) (UniProt Q969V6); assay: co-IP; FLAG-MKL1 and V5-p65 transfected into HEK293 cells in the presence or absence of HDAC5; precipitated with anti-FLAG; Western blot
[3] = target: endogenous MKL1 of THP-1 cells (human (endogenous in THP-1)) (UniProt Q969V6); assay: co-IP; whole cell lysates of THP-1 cells, endogenous proteins; RIPA buffer; precipitated with indicated antibodies or pre-immune IgG, Protein A/G-plus agarose; Western blot
[4] = target: T1, endogenous MKL1 of RAW264 cells (mouse (endogenous in RAW264)) (UniProt Q8K4J6); assay: co-IP; RAW264 cells (Supplementary Figure 3); as the THP-1 experiment with HDAC5 silencing
T1 sequence: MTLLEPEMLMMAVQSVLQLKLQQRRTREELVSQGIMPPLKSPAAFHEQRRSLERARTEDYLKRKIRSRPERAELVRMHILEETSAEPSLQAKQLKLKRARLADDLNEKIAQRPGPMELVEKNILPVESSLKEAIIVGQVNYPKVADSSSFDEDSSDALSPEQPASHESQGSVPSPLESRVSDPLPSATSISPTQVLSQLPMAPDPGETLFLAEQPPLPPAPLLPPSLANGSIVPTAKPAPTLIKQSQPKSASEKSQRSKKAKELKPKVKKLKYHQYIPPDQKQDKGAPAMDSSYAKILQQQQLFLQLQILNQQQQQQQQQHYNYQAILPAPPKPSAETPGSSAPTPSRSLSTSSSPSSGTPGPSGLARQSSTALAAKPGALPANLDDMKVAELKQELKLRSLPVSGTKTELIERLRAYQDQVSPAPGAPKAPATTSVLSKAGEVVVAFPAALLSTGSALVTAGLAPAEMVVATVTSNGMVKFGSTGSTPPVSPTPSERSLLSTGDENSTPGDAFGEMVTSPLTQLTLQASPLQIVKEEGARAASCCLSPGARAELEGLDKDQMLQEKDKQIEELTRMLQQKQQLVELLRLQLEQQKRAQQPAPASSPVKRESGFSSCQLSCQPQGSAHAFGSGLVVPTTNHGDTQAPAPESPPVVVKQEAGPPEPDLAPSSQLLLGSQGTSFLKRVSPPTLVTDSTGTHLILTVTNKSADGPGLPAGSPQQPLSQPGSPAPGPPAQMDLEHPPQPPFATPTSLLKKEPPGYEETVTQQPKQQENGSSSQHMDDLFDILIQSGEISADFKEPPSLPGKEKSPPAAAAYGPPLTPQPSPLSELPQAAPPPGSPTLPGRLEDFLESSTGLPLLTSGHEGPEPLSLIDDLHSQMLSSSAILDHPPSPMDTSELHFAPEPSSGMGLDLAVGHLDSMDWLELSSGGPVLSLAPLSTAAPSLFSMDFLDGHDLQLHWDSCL

[5] = target: endogenous MKL1 of THP-1 cells (human (endogenous in THP-1)) (UniProt Q969V6); assay: co-IP; THP-1 cells transfected with siRNA targeting HDAC5 or scrambled siRNA, then TNF-α (10ng/ml); endogenous proteins; precipitated with anti-MKL1; Western blot
[6] = target: endogenous MKL1 of THP-1 cells (human (endogenous in THP-1)) (UniProt Q969V6); assay: Re-ChIP; THP-1 cells, TNF-α (10ng/ml), with HDAC5 expression construct or empty vector, or siRNA targeting HDAC5 or scrambled siRNA; chromatin cross-linked with 1% formaldehyde; sequential ChIP with indicated antibodies; qPCR of IL-1, IL-6, TNF-α and GAPDH promoters

Question: “HA-tagged HDAC5 (histone deacetylase 5) (from UniProt Q9UQL6 1-1122) (enzyme)” was tested. Which binding [1] did it give?
Answer: binds

Question: “V5-tagged p65 (NF-κB p65 subunit) (from UniProt Q04206 1-551)” was tested. Which binding [2] did it give?
Answer: binds

Question: For “endogenous HDAC5 of THP-1 cells (from UniProt Q9UQL6 1-1122) (enzyme)”, which binding [3] is on record?
Answer: binds

Question: Which binding [4] does the source give for “endogenous p65 of RAW264 cells (from UniProt Q04207 1-549)” here?
Answer: binds

Question: Which binding [5] does the source give for “endogenous p65 of THP-1 cells (from UniProt Q04206 1-551)” here?
Answer: binds

Question: What about the binding [6] of the same substance?
Answer: binds
